No constants are given. Whether binding was seen depends on the method and setting. In cells and extracts the contact can be indirect. A yes stands for co-enrichment or nearness to the bait. Other partners may have been found. Tags and fused reporters may be left off the sequences shown.
Target: T1, Flag-tagged FAM83A (UniProt Q86UY5)
T1 sequence: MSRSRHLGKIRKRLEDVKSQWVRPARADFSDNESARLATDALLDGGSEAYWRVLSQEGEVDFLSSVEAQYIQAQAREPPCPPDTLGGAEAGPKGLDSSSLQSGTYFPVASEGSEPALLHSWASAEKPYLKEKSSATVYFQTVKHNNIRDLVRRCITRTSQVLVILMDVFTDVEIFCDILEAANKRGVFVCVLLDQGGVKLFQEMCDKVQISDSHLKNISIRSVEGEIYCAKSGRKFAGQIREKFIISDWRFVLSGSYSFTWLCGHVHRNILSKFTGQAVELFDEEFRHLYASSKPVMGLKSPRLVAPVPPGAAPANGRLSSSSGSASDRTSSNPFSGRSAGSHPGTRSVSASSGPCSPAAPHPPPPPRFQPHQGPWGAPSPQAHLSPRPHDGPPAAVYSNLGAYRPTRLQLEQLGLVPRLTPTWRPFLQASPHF
Test: affinity purification with mass spectrometry; Flag antibody IP from lysates of HEK293T cells transfected with Flag-FAM83A for 48 h; immunoprecipitate sent for LS-MS/MS analysis

Protein sequences, listed by entry. Tags and fused reporters are not part of them.
UniProt P51451: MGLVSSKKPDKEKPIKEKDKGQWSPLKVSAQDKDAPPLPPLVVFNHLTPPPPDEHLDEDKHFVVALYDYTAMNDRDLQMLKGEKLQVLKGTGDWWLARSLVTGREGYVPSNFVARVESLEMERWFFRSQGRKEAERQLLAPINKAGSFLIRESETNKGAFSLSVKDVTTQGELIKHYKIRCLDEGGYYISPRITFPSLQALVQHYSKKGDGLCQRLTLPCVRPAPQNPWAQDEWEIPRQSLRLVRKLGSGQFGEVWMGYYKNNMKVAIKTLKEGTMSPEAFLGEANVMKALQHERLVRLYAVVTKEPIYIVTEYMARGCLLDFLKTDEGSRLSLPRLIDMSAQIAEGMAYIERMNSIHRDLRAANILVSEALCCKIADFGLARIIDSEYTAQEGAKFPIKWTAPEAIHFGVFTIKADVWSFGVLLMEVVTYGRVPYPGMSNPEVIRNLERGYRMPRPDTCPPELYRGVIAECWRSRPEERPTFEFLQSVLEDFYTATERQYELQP
UniProt P06241: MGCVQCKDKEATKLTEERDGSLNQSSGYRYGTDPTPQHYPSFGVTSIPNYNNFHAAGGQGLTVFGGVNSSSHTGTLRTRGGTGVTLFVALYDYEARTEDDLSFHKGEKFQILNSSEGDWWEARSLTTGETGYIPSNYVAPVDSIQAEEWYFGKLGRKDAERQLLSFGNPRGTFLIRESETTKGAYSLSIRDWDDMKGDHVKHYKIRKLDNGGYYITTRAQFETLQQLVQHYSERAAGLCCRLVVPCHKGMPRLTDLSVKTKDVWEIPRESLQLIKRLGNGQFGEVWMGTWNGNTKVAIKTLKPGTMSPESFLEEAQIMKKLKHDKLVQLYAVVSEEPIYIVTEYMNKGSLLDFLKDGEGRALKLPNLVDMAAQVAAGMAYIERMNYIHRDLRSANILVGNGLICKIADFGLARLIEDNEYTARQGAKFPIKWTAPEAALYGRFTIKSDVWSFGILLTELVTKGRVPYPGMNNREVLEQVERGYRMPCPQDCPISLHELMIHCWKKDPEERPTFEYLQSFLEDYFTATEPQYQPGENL
UniProt P35222: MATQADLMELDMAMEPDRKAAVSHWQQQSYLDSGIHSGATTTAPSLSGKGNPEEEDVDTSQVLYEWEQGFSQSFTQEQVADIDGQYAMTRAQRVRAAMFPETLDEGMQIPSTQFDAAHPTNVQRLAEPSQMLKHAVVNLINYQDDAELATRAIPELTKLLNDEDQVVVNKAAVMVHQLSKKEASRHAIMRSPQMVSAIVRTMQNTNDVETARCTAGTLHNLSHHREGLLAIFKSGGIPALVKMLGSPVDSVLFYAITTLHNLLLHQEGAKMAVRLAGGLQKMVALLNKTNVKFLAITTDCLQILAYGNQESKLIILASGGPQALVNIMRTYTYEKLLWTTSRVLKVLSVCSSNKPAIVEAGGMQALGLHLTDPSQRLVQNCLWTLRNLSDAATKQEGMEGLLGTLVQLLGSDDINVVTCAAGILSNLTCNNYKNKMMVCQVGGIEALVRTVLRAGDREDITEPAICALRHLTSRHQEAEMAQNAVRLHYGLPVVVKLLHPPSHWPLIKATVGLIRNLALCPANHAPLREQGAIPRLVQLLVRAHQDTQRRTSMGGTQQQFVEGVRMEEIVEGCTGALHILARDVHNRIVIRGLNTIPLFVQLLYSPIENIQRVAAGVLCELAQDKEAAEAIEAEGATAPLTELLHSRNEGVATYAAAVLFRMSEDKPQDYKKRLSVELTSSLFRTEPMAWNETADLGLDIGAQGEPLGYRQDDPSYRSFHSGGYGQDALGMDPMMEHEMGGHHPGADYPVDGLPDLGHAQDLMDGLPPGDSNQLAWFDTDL

Row | binding | Substance
1 | binds | BLK (found in the FAM83A immunoprecipitate) (from UniProt P51451 1-505) (enzyme)
2 | binds | FYN (found in the FAM83A immunoprecipitate) (from UniProt P06241 1-537) (enzyme)
3 | binds | endogenous β-catenin (from UniProt P35222 1-781)

— PMC9935901, “B-lymphoid tyrosine kinase-mediated FAM83A phosphorylation elevates pancreatic tumorigenesis through interacting with β-catenin” (Signal Transduction and Targeted Therapy, 2023)
